Experimental data: patent US20110027783
For at least one entry, the source does not settle the construct or the ends of the probe. Where cells or extracts were used, other partners may take part.

Chains of the proteins cited; added tags and fusions are not shown. A change or cut given only in a name is not applied to a line headed by its entry. A line that says so, or that is headed by a name, gives the form on record, which may keep a tag or linker.
E47 (TCF3/E2A) (Homo sapiens), one chain, as listed by the source: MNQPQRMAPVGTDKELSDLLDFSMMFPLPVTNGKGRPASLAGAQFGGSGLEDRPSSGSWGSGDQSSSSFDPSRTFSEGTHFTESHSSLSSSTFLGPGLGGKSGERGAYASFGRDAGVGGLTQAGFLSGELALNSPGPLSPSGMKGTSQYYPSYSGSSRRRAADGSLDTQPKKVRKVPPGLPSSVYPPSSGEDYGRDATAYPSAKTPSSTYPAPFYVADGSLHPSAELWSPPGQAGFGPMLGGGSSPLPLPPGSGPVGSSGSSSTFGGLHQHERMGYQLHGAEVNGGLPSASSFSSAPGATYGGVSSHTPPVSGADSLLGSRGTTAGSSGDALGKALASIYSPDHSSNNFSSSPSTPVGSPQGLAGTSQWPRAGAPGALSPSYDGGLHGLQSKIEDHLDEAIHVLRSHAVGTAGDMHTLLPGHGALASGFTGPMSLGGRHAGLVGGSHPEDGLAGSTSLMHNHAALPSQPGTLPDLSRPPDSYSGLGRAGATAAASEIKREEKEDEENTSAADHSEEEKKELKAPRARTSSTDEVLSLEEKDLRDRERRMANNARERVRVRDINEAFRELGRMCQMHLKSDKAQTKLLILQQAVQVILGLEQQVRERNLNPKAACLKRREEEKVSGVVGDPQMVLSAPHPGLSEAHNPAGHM

Tested on: E47 (TCF3/E2A) (Homo sapiens)
Assay: EMSA
Details: protein in an extract

“CGGGCCGGCAGCAGCGGCTGGAGTCGTATGGCAGTGAGCCGCTGTCTACC (double strand) [EXO1P_rs1776180_G]”: binds.
